doi:10.1101/2025.06.16.659960

Chains of the proteins cited; added tags and fusions are not shown.
UniProt G5EFM9: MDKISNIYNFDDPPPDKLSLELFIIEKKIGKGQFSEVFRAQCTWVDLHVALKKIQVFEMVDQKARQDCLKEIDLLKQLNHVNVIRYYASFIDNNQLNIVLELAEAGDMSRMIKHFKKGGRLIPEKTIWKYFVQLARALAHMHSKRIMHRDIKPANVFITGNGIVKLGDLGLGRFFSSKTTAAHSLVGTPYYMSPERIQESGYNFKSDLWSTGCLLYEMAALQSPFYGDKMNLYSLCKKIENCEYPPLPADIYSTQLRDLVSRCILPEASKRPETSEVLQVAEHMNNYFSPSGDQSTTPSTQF
UniProt G5EDY0: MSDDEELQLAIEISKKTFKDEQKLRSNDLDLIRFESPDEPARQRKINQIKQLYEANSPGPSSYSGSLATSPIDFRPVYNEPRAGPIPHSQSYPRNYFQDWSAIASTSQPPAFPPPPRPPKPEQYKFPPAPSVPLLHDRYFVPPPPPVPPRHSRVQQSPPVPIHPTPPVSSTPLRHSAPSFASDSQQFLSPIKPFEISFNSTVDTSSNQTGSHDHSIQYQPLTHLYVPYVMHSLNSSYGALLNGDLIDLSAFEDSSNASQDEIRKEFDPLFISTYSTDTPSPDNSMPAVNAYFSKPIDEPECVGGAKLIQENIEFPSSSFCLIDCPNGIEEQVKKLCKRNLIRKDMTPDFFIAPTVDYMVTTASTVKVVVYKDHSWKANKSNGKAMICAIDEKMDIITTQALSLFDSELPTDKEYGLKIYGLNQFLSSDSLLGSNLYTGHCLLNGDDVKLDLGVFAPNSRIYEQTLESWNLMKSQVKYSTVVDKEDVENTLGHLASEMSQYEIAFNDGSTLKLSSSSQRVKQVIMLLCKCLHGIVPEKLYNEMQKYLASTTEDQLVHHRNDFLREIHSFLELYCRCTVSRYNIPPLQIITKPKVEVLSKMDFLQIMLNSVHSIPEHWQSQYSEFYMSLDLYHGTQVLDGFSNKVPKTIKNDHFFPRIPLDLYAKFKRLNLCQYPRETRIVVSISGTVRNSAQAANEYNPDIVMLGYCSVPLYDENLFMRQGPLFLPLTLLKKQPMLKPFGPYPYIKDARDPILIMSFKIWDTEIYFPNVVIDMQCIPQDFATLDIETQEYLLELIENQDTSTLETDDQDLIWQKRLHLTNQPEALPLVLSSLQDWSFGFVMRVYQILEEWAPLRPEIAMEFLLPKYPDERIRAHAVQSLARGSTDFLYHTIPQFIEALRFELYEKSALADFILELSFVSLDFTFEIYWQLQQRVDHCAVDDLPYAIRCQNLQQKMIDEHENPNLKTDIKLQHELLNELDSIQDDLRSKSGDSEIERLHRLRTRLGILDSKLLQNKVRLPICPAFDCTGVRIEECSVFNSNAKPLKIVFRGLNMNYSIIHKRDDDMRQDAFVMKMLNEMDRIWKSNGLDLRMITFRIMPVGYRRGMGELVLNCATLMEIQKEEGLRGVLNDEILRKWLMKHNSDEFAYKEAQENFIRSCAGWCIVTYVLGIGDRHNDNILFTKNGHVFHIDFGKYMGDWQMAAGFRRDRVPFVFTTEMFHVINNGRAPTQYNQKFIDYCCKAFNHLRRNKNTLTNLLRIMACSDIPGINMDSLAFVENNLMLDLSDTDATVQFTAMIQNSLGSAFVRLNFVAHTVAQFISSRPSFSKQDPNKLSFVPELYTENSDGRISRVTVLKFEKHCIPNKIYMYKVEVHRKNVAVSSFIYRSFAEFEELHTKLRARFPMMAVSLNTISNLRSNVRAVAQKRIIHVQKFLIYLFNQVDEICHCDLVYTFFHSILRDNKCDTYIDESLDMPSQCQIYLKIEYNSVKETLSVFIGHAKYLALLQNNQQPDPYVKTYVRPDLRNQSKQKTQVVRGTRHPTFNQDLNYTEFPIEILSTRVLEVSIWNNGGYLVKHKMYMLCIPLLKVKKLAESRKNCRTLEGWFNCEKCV

Assays:
Assay in all cases: proximity labelling
[1] = biological target: T1, NEKL-2::TurboID (C. elegans) (UniProt O01775)
T1 sequence: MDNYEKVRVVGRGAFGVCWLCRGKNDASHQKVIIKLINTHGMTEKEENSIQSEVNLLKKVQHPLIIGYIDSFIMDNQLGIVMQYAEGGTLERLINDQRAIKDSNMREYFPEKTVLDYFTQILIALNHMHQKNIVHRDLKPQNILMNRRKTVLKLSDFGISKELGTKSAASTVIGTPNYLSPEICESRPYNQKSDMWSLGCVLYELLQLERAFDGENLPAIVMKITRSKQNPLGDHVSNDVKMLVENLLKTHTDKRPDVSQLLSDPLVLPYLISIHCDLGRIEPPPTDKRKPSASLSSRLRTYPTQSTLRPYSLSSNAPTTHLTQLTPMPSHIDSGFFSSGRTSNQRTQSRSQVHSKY

[2] = biological target: T2, TurboID::NEKL-2 (C. elegans) (UniProt O01775)
T2 sequence: T1 sequence

[3] = biological target: T1, NEKL-2::TurboID (C. elegans); remark: listed apart in the source
[4] = biological target: NEKL-3::TurboID (C. elegans) (UniProt G5EFM9)
[5] = biological target: MLT-3::TurboID (C. elegans)

binding [1]: binds
Molecule: NEKL-3 (from UniProt G5EFM9 1-302)

binding [1]: binds
Molecule: PIKI-1 (from UniProt G5EDY0 1-1607)

binding [1]: binds
Molecule: FCHO-1 (C. elegans (endogenous in worms))

binding [3]: binds
B4: TAT-1 (protein, UniProt Q9U280 1-1139)
chain: MPTEARDNNRHIHLGKVRDPHHQHAQRFCSNRISTCKYNGFSFLPRFLYEQFRRYNNIFFLAIALLQQIPDVSPTGRYTTAVPFLIILSVSALKEIFEDVKRRRSDNKVNAFSVEILVDGHWIEKQWKDVSVGDFIRIDNDSLFPADLLLLASSEQQGMAYIETSNLDGETNLKIKQALDITSTMTSPEKLSQFESEITCEPPSRHVNEFNGNIEINGVARHFGIDQLLLRGARLKNTAWIFGAVIYTGHDSKLLMNSKRAPLKSGTIDVQTNYRIIFLFFVLVALALISATGSEIWRGNNIPQAWYLSFLEHDPKGSFLWGVLTFFILYNNLIPISLQVTLEVVRFFQAIYINNDIEMYDVNSDSCAIARTSNLNEELGQVKFIMSDKTGTLTRNVMKFKRLSIGSRNYGNNEDDEFADASLIEDYRQGDEHSTSILEVLKMMAVCHTVVPENKDGQLIYQSSSPDEAALVRGAASQSVSFHTRQPQKVICNVFGEDETIEILDVIDFTSDRKRMSVIVRDGAGGDIKLYTKGADTVIFERLEHGKEQEEAVEYCTEHLEDYASFGYRTLCFSMRHLTEQEYSQWAPEYKKAILAIDNRAKLLADAAEKLERNMILVGATAIEDKLQEWVPETIQALMAADIRVWMLTGDKRETAINIAHSCALCHTNTELLIVDKTTYEETYQKLEQFVARAIELEKQEKGFAMVIDGKSLLHALTGEARKHFGDLALRCHAVVCCRMSPMQKAEVVEMVRKLAKHVVLAIGDGANDVAMIQAANVGVGISGEEGLQAASASDYAIPRFHFLRRLLLVHGAWNHDRSVKVILYSFYKNICLYIIELWFAMFSAWSGQTIFERWTIGMFNVIFTAWPPVVLGLFDHPVPAEQIMKYPALYASFQNRAFSIGNFSLWIGLAIVHSLSLFFLTYATMEHQVVWDNGLTGGWLMLGNCAYTFVVATVCFKALLECDSWTWPVVVACIGSIGLWIVFVIVYSLVFPHIGGIGADMAGMAAIMMSSYTFWLALLFIPLATLLWDLVIKSLFTIAMPTPRELAVMYNKRTTSFNGFERLASYSSNVLENMRLLTSSLRGSTTGSTRSRTASEASLALAEQTRYGFAFSQDESSAVAQTELIRNVDSTREKPTGR

More lines, now with the values behind:

Molecule: EEA-1 (C. elegans (endogenous in worms))
binding [1]: binds

Molecule: MLT-3 (C. elegans (endogenous in worms))
binding [1]: binds

Molecule: MLT-4 (C. elegans (endogenous in worms))
binding [1]: binds

Molecule: MLT-2 (from UniProt Q17583)
binding [1]: binds
binding [2]: binds

B1: CDC-37 (protein, UniProt O02108 1-370)
chain: MPIDYSKWKDIEVSDDEDDTHPNIDTPSLFRWRHQARLERMAEKKMEQEKIDKEKGTTSKKMEELEKKLAAADVTDKSDIQKQIDEVKAQEEAWRKKEAELEEKERLEPWNVDTIGHEAFSTSRINKITEKKPQAPKTDEEDTHAMSTFFETHESLLEKMAVLKNGAKSTELFLAEHPHMASEYTANWLTIEALNAAIDFNEEKMKTMAEQCIIIQYLLELSKSLNAVATNTTVQKQFFKKFEAAEPVYMKHYQDEVKAFEDRLRTRAQTKRDAAMEEAEAEEKAERMKSAPGGIDPQEVFEQLPEEMRKCFEAHDIEALKGVAQKMDEEVFKYHFDRCIASGLWVPGKADDDDDDEEAAPAEEEPTTSS
binding [3]: binds

B2: UNC-16 (protein, UniProt P34609 1-1190)
chain: MACNLSPVNEMADSITSSTPSEIVYGGPGSPDEHRTMSDKVQTMASAIYRELETMIKVHGEDGVKTLMPLVVNVLEALDLAYLERDEQTAELEMLKEDNEQLQTQYEREKALRKQTEQKYIEIEDTLIGQNKELDKKIESLESIMRMLELKAKNATDHASRLEEREVEQKLEFDRLHERYNTLLRTHVDHMERTKYLMGSEKFELMQNMPLPNMQLRNKMGMAASVDASSIRGVSDLISAHMTQSTTMDVNLANHITNEDWQDEFSSDIEPSPRDIPQSSADALTSPITTKEPTPKREAASPKQSEEEEADETTSVDPKENNDLLGADLTDDESDWNGLGLIPRRHRPNEMLDDDDTSDDGSLGMGREVENLIKENSELLDMKNALNIVKNDLINQVDELNSENMILRDENLSRQMVSEKMQEQITKHEEEIKTLKQKLMEKENEQEEDDVPMAMRKRFTRSEMQRVLMDRNAYKEKLMELEESIKWTEMQRAKKMQQQQQNVNQKKSGGIWEFFSSLLGDSVTPPASSRGNRASSSRGKMTRSVEYIDPDMISERRAAERREQYKLVREHVKKEDGRIEAYGWSLPNVEAEVSSVPIPVCCRPLLDNEPSLKIWCATGVVLRGGRDERGQWIVGDPIYFAPASMKKTKTSNHRPELEDEIKRARNLDARESELDEWQSSSLVWVVSSNQGKSLIAVLDANNPNNIIETFPACDSHLLCIQAVSGVMEGEPEMNEEQSKKYLSGGGKIKDLPEGLDGTDLGACEWVELRKMEDSEDGVPTYCSNDMKPSPKRTRDFSISEVAPVDSSAPVKEDPLPPPANRPGGRAALPPHIRDAMSKYDGVSGQMSGALPTVWMGGQNQYIYIHSAVTAWKQCLRRIKMPDAVLSIVHYKSRIFAALANGTIAIFHRNKHGEWSDEGYHSLRVGSATSSVRSLCLVSTNIWATYKNCVVVLDAESLQIVKVFAAHPRKDSQVRNMQWVGAGVWLSIRLDSTLRLYHAHTYEHLQDVDIEPYVTKMLGTSKLDFSYMRTTALLVSNRRLWIGTGTGVIISVPFSGQLEKKIETKDSKRPAGPGGLVRVYGATSENATNDEKTNDDFIPYCNLAHAQLSFHGHKDSVKFFLGVPGASKNGEDESAEVTLRRMLIMSGGDGYIDFRIGEENEPELTGQSIRPRDMSHLIIWEVDAELPILSK
binding [4]: binds

B3: NEKL-2 (protein, UniProt O01775 1-357)
chain: T1 sequence
binding [5]: binds

Like-named read-outs stand apart in the source and are kept apart here. Results are given in words; binding and its absence hold for the method and conditions named. Binding seen in cells or lysates may run through a third protein. These calls come from enrichment with a bait or labelling near it, and not all partners need be listed. One block for each molecule: values may come before it.
